Source: PubChem BioAssay AID1487 (National Center for Advancing Translational Sciences (NCATS), 2009)
This is one part of the list. These are further read-outs of the screen, such as a control signal, another cell line or another target. No call is given for them. Compounds called inactive in the main read-out are mostly missing here. Potencies come from curve fits of mixed quality, noted in brackets.

Assay: qHTS Assay for Modulators of Lamin A Splicing
Settings: HeLa LMNA splicing GFP/RFP minigene ratio, 48 h
In short: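 Read-out is the ratio of GFP to DsRed2 object intensity, acquired by 488 nm laser-scanning cytometry on HeLa lamin A-EGFP minigene reporter cells. Compound incubation 48 hrs at 37 °C in Opti-MEM with 2% FBS; DMSO 0.5% final.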

[1] = measured here: GFP splicing reporter channel
[2] = measured here: RFP viability control channel

Compound | AC50 [1] | AC50 [2]
CN(CCC#N)C(=S)Nc1ccc(Oc2ccccc2)cc1 | 7.94 µM [rising, partial curve, poor fit] | 15.8 µM [rising, partial curve, poor fit]
O=C(Nc1ccc(O)cc1)c1ccc(C(=O)c2ccccc2)o1 |  | 10 µM [rising, partial curve]
COc1ccc(Br)cc1CN(C)CC(=O)Nc1ccccc1Cl |  | 0.562 µM [rising, partial curve]
COc1ccc(Cl)cc1S(=O)(=O)N1CCN(c2ccc(F)cc2)CC1 |  | 6.31 µM [rising, partial curve]
O=C(O)/C=C/C(=O)N1CCN(S(=O)(=O)c2cccc(C(F)(F)F)c2)CC1 |  | 2.51 µM [rising, partial curve]
COC(=O)c1c(CSc2ccc(Cl)cc2)noc1C(=O)NCc1ccco1 | 12.6 µM [rising, single point] | 17.8 µM [rising, single point]
O=C(c1cc(-c2cccs2)on1)N1CCN(C(c2ccccc2)c2ccccc2)CC1 |  | 14.1 µM [rising, single point]
O=C1CCCN1c1ccc(S(=O)(=O)Nc2ccc3c(c2)OCCO3)cc1 |  | 2.82 µM [rising, partial curve]
O=C(Cc1csc(Nc2nc(=S)[nH]c3ccccc23)n1)NCCCN1CCN(c2ccccc2F)CC1 | 0.02 µM [falling, full curve, poor fit] | 
Cc1ccc(S(=O)(=O)N(CC(=O)NCCC2=CCCCC2)Cc2ccccc2)cc1 |  | 35.5 µM [falling, single point]
Cc1ccc(-c2cc(C(F)F)n3ncc(C(=O)N4CCN(c5cccc(C)c5C)CC4)c3n2)cc1 | 15.8 µM [rising, partial curve] | 31.6 µM [rising, single point]
CC(=O)Nc1ccc(OS(=O)(=O)c2ccc(C)cc2C)cc1 |  | 35.5 µM [falling, single point]
COc1ccc(CCN2CCC(CNC(=O)c3cnn(-c4cccc(Cl)c4)c3C3CCN(C(=O)OC(C)(C)C)CC3)CC2)cc1 | 14.1 µM [falling, partial curve] | 12.6 µM [falling, partial curve]
CCc1nnc(NC(=O)c2sc3nc4c(cc3c2N)CCCCC4)s1 |  | 12.6 µM [rising, partial curve, poor fit]
Cc1cc(C[n+]2ccccc2)c2nsnc2c1 |  | 35.5 µM [rising, single point]
O=C(CSc1nc2ccccc2c(=O)n1CCCN1CCOCC1)Nc1ccc2c(c1)OCO2 | 35.5 µM [falling, single point] | 
COc1ccccc1NC(=O)C(=O)NCC(c1cccnc1)N1CCc2ccccc2C1 (stereo not drawn) | 3.16 µM [falling, partial curve, poor fit] | 
CCc1nn2cc(C(=O)c3ccccc3O)cnc2c1-c1ccc(F)cc1 |  | 35.5 µM [rising, single point]
Cc1cc(C)c(C)c(/C=C(/C#N)C(N)=S)c1C |  | 35.5 µM [falling, single point]

Some of these compounds in order of molecular weight, ascending.
Compound | AC50 [1] | AC50 [2]
O=C(Nc1ccc(O)cc1)c1ccc(C(=O)c2ccccc2)o1 |  | 10 µM [rising, partial curve]
Cc1ccc(-c2cc(C(F)F)n3ncc(C(=O)N4CCN(c5cccc(C)c5C)CC4)c3n2)cc1 | 15.8 µM [rising, partial curve] | 31.6 µM [rising, single point]
COc1ccc(CCN2CCC(CNC(=O)c3cnn(-c4cccc(Cl)c4)c3C3CCN(C(=O)OC(C)(C)C)CC3)CC2)cc1 | 14.1 µM [falling, partial curve] | 12.6 µM [falling, partial curve]

More records follow:

Compound | AC50 [1] | AC50 [2]
COC(=O)c1ccc(NC(=O)CCc2c(C)nn(-c3ccc(N4CCCCC4)nn3)c2C)cc1 |  | 35.5 µM [falling, single point]
Cc1ccccc1-c1nc(Nc2ccncc2)c2ccccc2n1 | 1 µM [falling, partial curve] | 6.31 µM [falling, partial curve, poor fit]
Cc1cccc2sc(N(CCN(C)C)C(=O)/C=C/c3cccs3)nc12 |  | 31.6 µM [rising, single point]
O=C(N/N=C/c1ccccc1OCc1ccccc1)c1cccs1 | 7.08 µM [rising, partial curve] | 12.6 µM [rising, single point]
CCC1CCCCN1Cc1nc2c(c(=O)n(C)c(=O)n2C)n1Cc1ccccc1 (stereo not drawn) |  | 6.31 µM [rising, full curve, poor fit]
O=C(O)c1ccc(-c2ccc(O)c(F)c2)cc1 | 0.00447 µM [falling, full curve, poor fit] | 0.00447 µM [falling, full curve, poor fit]
CCCCNc1cc(C)nc(NCc2ccccc2)n1 | 11.2 µM [rising, partial curve, poor fit] | 11.2 µM [rising, partial curve]
Cc1ccccc1CNC(=O)C(=O)NCC(c1cccs1)S(=O)(=O)c1cccs1 (stereo not drawn) |  | 0.02 µM [falling, full curve]
CCN(Cc1ccccc1)c1ccc(/C=N/N=C(N)N)cc1 |  | 11.2 µM [rising, partial curve]
Cc1cccc(NC(=S)Nc2ccc(Oc3ccccc3)cc2)n1 |  | 2.82 µM [rising, full curve]
O=C(COc1ccccc1)OCc1cc(=O)n2nc(-c3cccs3)sc2n1 | 7.08 µM [falling, full curve, poor fit] | 0.0631 µM [falling, full curve]
Cc1ccc(S(=O)(=O)CCc2nnc(NC(=O)CCl)s2)cc1C |  | 1.41 µM [rising, partial curve, poor fit]
CCc1nc(N2CCCC(C)C2)c2oc3ccccc3c2n1 (stereo not drawn) |  | 35.5 µM [rising, single point]
Cc1cccc(C)c1NC(=O)CCCSc1nnc(-c2ccco2)o1 | 20 µM [rising, single point] | 
CCCCC(=O)NNC(=S)NC(=O)c1ccc(C)cc1 |  | 17.8 µM [rising, partial curve, poor fit]
CCOC(=O)N1CCN(C(=O)c2ccc3c(c2)N(Cc2ccc(C)cc2)CCS3)CC1 | 11.2 µM [rising, single point] | 11.2 µM [rising, partial curve]
Cc1cc(C)n2nc(C(=O)N/N=C/c3c4ccccc4cc4ccccc34)nc2n1 |  | 10 µM [falling, single point]
N#C/C(=C\c1ccc([N+](=O)[O-])o1)c1nc2ccccc2[nH]1 | 35.5 µM [falling, single point] | 35.5 µM [falling, single point]
